# Some of the results follow.
# Amino acid sequences for entries named in this document (tags omitted).
# UniProt Q0JBA9, entry or part of it: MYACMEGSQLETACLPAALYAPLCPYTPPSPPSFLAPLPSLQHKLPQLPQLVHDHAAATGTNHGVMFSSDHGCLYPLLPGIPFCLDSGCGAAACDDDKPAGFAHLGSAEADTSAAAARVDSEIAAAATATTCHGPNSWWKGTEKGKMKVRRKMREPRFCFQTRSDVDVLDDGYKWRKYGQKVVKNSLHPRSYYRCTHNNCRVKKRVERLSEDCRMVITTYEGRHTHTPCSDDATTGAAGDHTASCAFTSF
# Target: OsWRKY34 (Oryza sativa, UniProt Q0JBA9 1-250)
# Experiment: protein-binding microarray (RPBM); PBS, 2% BSA, 51.3 ng/ul salmon testes DNA, 50 uM zinc acetate, 200 nM TF, 25 C, 1 h; high values mean tight binding
# Settings: protein: recombinant; tags: N-terminal polyhistidine and DsRed monomer fusion (pET32a); label: CyDye5-dUTP incorporated in the synthesized complementary strand; 3' TTTTT single-stranded linker to array surface; dsDNA, one strand shown
# Summary of the method: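 Transcription factors, each fused N-terminally to a polyhistidine tag and DsRed, were expressed in E. coli BL21-CodonPlus and purified on Ni–NTA. A custom Agilent array was made double-stranded by primer extension with Cy5-dUTP and blocked with 2% BSA. It was incubated with 200 nM protein in PBS, 2% BSA, salmon testes DNA and 50 µM zinc acetate at 25 °C for 1 h, then washed. The binding signal is per-feature fluorescence intensity (arbitrary units) read on an Axon 4000B scanner.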
row,Sequence,binding signal
1,TTACTAGTCTACTGCTGCTGCTCTTGCTCTGAACTTTTTTCGGAGTCACCTAGTGCAG,8080 fluorescence intensity (a.u.)
2,TCGGACGGACGCTTTCCATTTCCGAACTGTTTTCATCCATCGGAGTCACCTAGTGCAG,8240 fluorescence intensity (a.u.)
3,TCCTCTCGCCATCGAGTCCGACACGTCCACATCGCCATTACGGAGTCACCTAGTGCAG,8240 fluorescence intensity (a.u.)
4,TTTGATCACATCTTACACTGCCGGGTGGGGTCAGCATCTGCGGAGTCACCTAGTGCAG,8070 fluorescence intensity (a.u.)
5,GGTGCCGTTGGAACCCACAGCCACTGGCCAGTCATTTACACGGAGTCACCTAGTGCAG,8030 fluorescence intensity (a.u.)
6,TCTCTCGCAAGTGTTGTTATTCCTTTCTCTCCCGCCAATACGGAGTCACCTAGTGCAG,10200 fluorescence intensity (a.u.)
7,GATGTGACGTGATGTGATGGAAAGTTGGGAGTTGGGGAAACGGAGTCACCTAGTGCAG,8560 fluorescence intensity (a.u.)
8,TCCTCTCCTCTCGAGCTCACCTATTATTGGTCCATTCTAGCGGAGTCACCTAGTGCAG,8490 fluorescence intensity (a.u.)
9,GCTCATCGTCACCATTTTTCACAGGGTGTAGGGGCGTCTCCGGAGTCACCTAGTGCAG,11300 fluorescence intensity (a.u.)
10,TGTCGCAATCTTTTGTGAATTGGTGGTGTGTTTTGTCAGTCGGAGTCACCTAGTGCAG,8610 fluorescence intensity (a.u.)
11,TTTCTTAGCTATGTCCTAATTTATTACTGTGCATGTTTCTCGGAGTCACCTAGTGCAG,10900 fluorescence intensity (a.u.)
12,GCCACCCCTGCTCCGTGCCTTTGCATACACATGGTCATCTCGGAGTCACCTAGTGCAG,8340 fluorescence intensity (a.u.)
13,CCCAGGTCCGCTGCTTCTACTTCTACATCTGTTTTATCTTCGGAGTCACCTAGTGCAG,10300 fluorescence intensity (a.u.)
14,GTCGATTTTTAATTTTGTTCGCTTTTGGAAATACATATCCCGGAGTCACCTAGTGCAG,11200 fluorescence intensity (a.u.)
15,ATATCTTGTCCCTGGCCTCGGCTTTGTTCAAGTACAGAACCGGAGTCACCTAGTGCAG,8310 fluorescence intensity (a.u.)
16,TAGTTCATTTGCATGCTTATTTCCGCCACAGTGTGGCGATCGGAGTCACCTAGTGCAG,13200 fluorescence intensity (a.u.)
17,CAGAGAAAGTATATATTTGTTTGGTTGAACTTCACACTTTCGGAGTCACCTAGTGCAG,8110 fluorescence intensity (a.u.)
18,TGTCGGTATCACCCGTATCACATCACAATACGTCAATATCCGGAGTCACCTAGTGCAG,9310 fluorescence intensity (a.u.)
19,GCATGCTCACCTTGATATGTCTCGTAGATTTTTTCAGCTTCGGAGTCACCTAGTGCAG,9090 fluorescence intensity (a.u.)
20,CTCGCCGCCTCCAGCCAATCCACCGCCGCCACCTTGCCGCCGGAGTCACCTAGTGCAG,8270 fluorescence intensity (a.u.)
21,CTTTGTTTTTTCGTTTTTACCTCTTTGAGTAGGACTTTTTCGGAGTCACCTAGTGCAG,12800 fluorescence intensity (a.u.)

row,Sequence,binding signal
1,TTTCTTTAATCTGGTTGTTAGATTCCAACTATTTTCCTCACGGAGTCACCTAGTGCAG,8720 fluorescence intensity (a.u.)
2,CACTACCTCACCCACTACCCCGCGTCGTGCCTTTTGACTCCGGAGTCACCTAGTGCAG,10100 fluorescence intensity (a.u.)
3,TCAGGGGTGGTGGTTCGTTGAAGTCGGCCGATGGAGGGGCCGGAGTCACCTAGTGCAG,9550 fluorescence intensity (a.u.)
4,TTAGGATACATGGGAATTTTAGTGGGGATAGGATGGGGAACGGAGTCACCTAGTGCAG,8520 fluorescence intensity (a.u.)
5,CGGTGTCGGATTTTTGGTTGGTTGACGGGGTTTGTGAGGTCGGAGTCACCTAGTGCAG,17500 fluorescence intensity (a.u.)
6,GTGCTATCTGTGTGGGTGATTGATTCATTGGTCAACTCAACGGAGTCACCTAGTGCAG,8800 fluorescence intensity (a.u.)
7,GCATCATTATGAGTTTTTTTTTTGTTTGCTGCTTCTGATACGGAGTCACCTAGTGCAG,8300 fluorescence intensity (a.u.)
8,GTCTCGCGCCAGTGCGTCTCTTCCTCGCGCGGCGATCATGCGGAGTCACCTAGTGCAG,9580 fluorescence intensity (a.u.)
9,TTATCTCCTCATCCATTTTCATCCTCGTCTACATTCACTGCGGAGTCACCTAGTGCAG,8510 fluorescence intensity (a.u.)
10,GGGGTGGGCGGCCGCGGGAGCTCCACGGCATCGATCGCCACGGAGTCACCTAGTGCAG,8040 fluorescence intensity (a.u.)
11,CGCCACCACCTACCGCCATTCGCCGCCGTATATATAACACCGGAGTCACCTAGTGCAG,13800 fluorescence intensity (a.u.)
12,TATTTTTTGCTATTATCTTTTGTGTAAGCATATTCTCTCTCGGAGTCACCTAGTGCAG,9860 fluorescence intensity (a.u.)
13,CAAACTTCCAACTTTTCTGTCACATTATTTTAATTTTTTCCGGAGTCACCTAGTGCAG,10500 fluorescence intensity (a.u.)
14,TGTCCGCGGTCTCTTATTATGGGTTGCATTTTCCCCAAACCGGAGTCACCTAGTGCAG,10200 fluorescence intensity (a.u.)
15,GCCGCGCCGTTTGTTCGTGCTGATTCTCTCTCTCTCTCTACGGAGTCACCTAGTGCAG,11800 fluorescence intensity (a.u.)
16,TTTCGGACAGGGCCAGTTCTCCATCAGTCCATCCAAATTGCGGAGTCACCTAGTGCAG,9220 fluorescence intensity (a.u.)
17,CATGCAACATACCCATCCCATCGTCATCCTCATCATCATCCGGAGTCACCTAGTGCAG,9010 fluorescence intensity (a.u.)
18,GTGGGCTGGGGCTGAGATGGGCCTTAATTTGCAGTGGATCCGGAGTCACCTAGTGCAG,8770 fluorescence intensity (a.u.)
19,TCGTCTCCTCACCCCGCTGCTTCTCGACACCGCCACCGCACGGAGTCACCTAGTGCAG,8860 fluorescence intensity (a.u.)
20,GATGTCCCTTAATACCCCACTAGATTATGCTATCTACTCTCGGAGTCACCTAGTGCAG,9610 fluorescence intensity (a.u.)
21,GGTTATCGTTCTGAACTTCTGATGTTGCTGTTCAAATTTCCGGAGTCACCTAGTGCAG,14900 fluorescence intensity (a.u.)

row,Sequence,binding signal
1,GGTGGTGTGCCGTGCGTGTGGTGTGCGTGCGTGGCTAACTCGGAGTCACCTAGTGCAG,8050 fluorescence intensity (a.u.)
2,TATGTCACTAGCACCATATGTAACTAACACTCTCTCTAAACGGAGTCACCTAGTGCAG,9000 fluorescence intensity (a.u.)
3,TTTTCTCACATGTTTGGCCATTCGTCTTATTAAAAACTTTCGGAGTCACCTAGTGCAG,11000 fluorescence intensity (a.u.)
4,TTTTCTTTGTCTCTGTCCGCTCTTTTTTTTTATTTTTTATCGGAGTCACCTAGTGCAG,12300 fluorescence intensity (a.u.)
5,GTGAAGGGTATTTTTTTTAAAAAAAAATGGTGTGATGCGGCGGAGTCACCTAGTGCAG,8180 fluorescence intensity (a.u.)
6,TCGTCGCCTCGCCTCGCCGATCCGCCTCTCGTTCCGCCCGCGGAGTCACCTAGTGCAG,9430 fluorescence intensity (a.u.)
7,ACTAACGAAATTACTACTTCGTAGGGGTAGGGGTGGCGTGCGGAGTCACCTAGTGCAG,9370 fluorescence intensity (a.u.)
8,TGTTCATGTTTAACTCTAGAGTTTGACTTTTTTTTTACGGCGGAGTCACCTAGTGCAG,16300 fluorescence intensity (a.u.)
9,ATTCGTGCTAAAAATCTGATTGTGGTATATTTTCTGTGGCCGGAGTCACCTAGTGCAG,8170 fluorescence intensity (a.u.)
10,CGTCTTTGCCGGCCTCGCACATCATCTCTCTCTTTTCTTGCGGAGTCACCTAGTGCAG,16100 fluorescence intensity (a.u.)
11,ATGGCCACCCGGTCCTTGTTGACTTCTTGTCAACGATGTGCGGAGTCACCTAGTGCAG,11500 fluorescence intensity (a.u.)
12,GTACATACGTAAAATACTCCATTTGTTTCTAAATATTTGACGGAGTCACCTAGTGCAG,9110 fluorescence intensity (a.u.)
13,TGTTATTATTGCCGTTGTCTTTATTTTTCTTTTTTGAAAACGGAGTCACCTAGTGCAG,9580 fluorescence intensity (a.u.)
14,GTCAGTCCCATTTCCACCACACAGCAGCAGCATCCATACACGGAGTCACCTAGTGCAG,12500 fluorescence intensity (a.u.)
15,GGCTCCTCGTCGTCGTCGTCATCCTCGGGCAGGGTTGGTACGGAGTCACCTAGTGCAG,12400 fluorescence intensity (a.u.)
16,GGTTCTTCTTGTGCACCGCCAGCCCGTTCTCCTCCTCCACCGGAGTCACCTAGTGCAG,8210 fluorescence intensity (a.u.)
17,AAACCTCACTATCACACTCATCCTTTCCTACTTGGATTCCCGGAGTCACCTAGTGCAG,9200 fluorescence intensity (a.u.)
18,AAGTGTGTAAGCATTCTTATTCTTTCAATTATTTCTATTCCGGAGTCACCTAGTGCAG,8700 fluorescence intensity (a.u.)
19,GGTCGTGGGAACAAATTCTTTCACATATGTGTGTTTTCCTCGGAGTCACCTAGTGCAG,10100 fluorescence intensity (a.u.)
20,GGTTGGGTTTCGTGGAGAATTGCGGCAGATCTTTGAGATGCGGAGTCACCTAGTGCAG,8270 fluorescence intensity (a.u.)
21,GGGCCTCCATGTCGCGCACCGCCACCATCCATCCACACGGCGGAGTCACCTAGTGCAG,9270 fluorescence intensity (a.u.)

# Reprinted at random: seven entries already listed, in no set order.
row,Sequence,binding signal
7,GATGTGACGTGATGTGATGGAAAGTTGGGAGTTGGGGAAACGGAGTCACCTAGTGCAG,8560 fluorescence intensity (a.u.)
21,GGTTATCGTTCTGAACTTCTGATGTTGCTGTTCAAATTTCCGGAGTCACCTAGTGCAG,14900 fluorescence intensity (a.u.)
11,TTTCTTAGCTATGTCCTAATTTATTACTGTGCATGTTTCTCGGAGTCACCTAGTGCAG,10900 fluorescence intensity (a.u.)
13,CAAACTTCCAACTTTTCTGTCACATTATTTTAATTTTTTCCGGAGTCACCTAGTGCAG,10500 fluorescence intensity (a.u.)
5,CGGTGTCGGATTTTTGGTTGGTTGACGGGGTTTGTGAGGTCGGAGTCACCTAGTGCAG,17500 fluorescence intensity (a.u.)
12,GTACATACGTAAAATACTCCATTTGTTTCTAAATATTTGACGGAGTCACCTAGTGCAG,9110 fluorescence intensity (a.u.)
6,TCTCTCGCAAGTGTTGTTATTCCTTTCTCTCCCGCCAATACGGAGTCACCTAGTGCAG,10200 fluorescence intensity (a.u.)

# Later entries:

row,Sequence,binding signal
1,GATCCATCTCCGTATCTCTCACCGACCCCAAATCGCACAGCGGAGTCACCTAGTGCAG,8300 fluorescence intensity (a.u.)
2,CAATCATACGCTAATGACTTTCCCGTTTTCCGTACCATTACGGAGTCACCTAGTGCAG,10600 fluorescence intensity (a.u.)
3,TCCCTCAGCCGTTCATCGCCCCTTTGTCGTCTCAGCACTTCGGAGTCACCTAGTGCAG,8420 fluorescence intensity (a.u.)
4,CACACACACACACACACGCAGACCACGCACGCGTCCTAACCGGAGTCACCTAGTGCAG,8570 fluorescence intensity (a.u.)
5,GCTACTGTTACACTGTTCCCAGCTACAGTCTACCATTGTCCGGAGTCACCTAGTGCAG,9630 fluorescence intensity (a.u.)
6,ATCTTTGACTTTTCGCCGCACACGCTATAAGGCCAGTCACCGGAGTCACCTAGTGCAG,16000 fluorescence intensity (a.u.)
7,GCTATACATCCATGATTTTTTTTGGTTATTTTTGAAAATTCGGAGTCACCTAGTGCAG,8920 fluorescence intensity (a.u.)
8,ATTCCTATATGGACTCTACTTTTTCTTTTCTCCGATTAATCGGAGTCACCTAGTGCAG,9410 fluorescence intensity (a.u.)
9,GCTTCACGTGGACCGCGGCCATCATCATCAGGCTGCAGCTCGGAGTCACCTAGTGCAG,8830 fluorescence intensity (a.u.)
10,GTGGTTCGGTGGGGTAATTCATACTGTCGCAATTGTTCAGCGGAGTCACCTAGTGCAG,9850 fluorescence intensity (a.u.)
11,CCTCACCCGTCTCTGCTCTGCTCTGCTCTCTGTTCCTCGCCGGAGTCACCTAGTGCAG,12500 fluorescence intensity (a.u.)
12,GGCTGTTGACTACACGAAATGATAGGGCTGGGATGGATCGCGGAGTCACCTAGTGCAG,8240 fluorescence intensity (a.u.)
13,TCACAAACACATGCTAGTAGTATAGTACTGTAATATTTTGCGGAGTCACCTAGTGCAG,8710 fluorescence intensity (a.u.)
14,TTGATCCATATATTTTTCTCGGTGTTTGACCCCAAGACTCCGGAGTCACCTAGTGCAG,8900 fluorescence intensity (a.u.)
15,CTCCTCGCCAAGGTCTCCATCGCCTGCTTCTCATGAGCCACGGAGTCACCTAGTGCAG,8450 fluorescence intensity (a.u.)
16,CGCCTTCGCCTCCGGCCCCTTATATGGCGTGGCGGGGAGGCGGAGTCACCTAGTGCAG,8930 fluorescence intensity (a.u.)
17,AGCATTTAGGTGAAAATATCACCATATACTATCTCCATCTCGGAGTCACCTAGTGCAG,8380 fluorescence intensity (a.u.)
18,CGAGGATATTAATAATCTTCCAGTTCTCCATTTTTATACCCGGAGTCACCTAGTGCAG,8170 fluorescence intensity (a.u.)
19,TACCGTCTCACACGCTGCTCATCATGTTTTTTATACTTTACGGAGTCACCTAGTGCAG,11500 fluorescence intensity (a.u.)
20,CGGTTTCGTGTTCCCGCGGCTCTATAATTTGGACCTCATGCGGAGTCACCTAGTGCAG,9900 fluorescence intensity (a.u.)
21,CATCGTGGGATCCACTACTCCGCTACTCCTATCCTATCACCGGAGTCACCTAGTGCAG,8990 fluorescence intensity (a.u.)

# — publication PMC7819943, “Rice protein-binding microarrays: a tool to detect cis-acting elements near promoter regions in rice”
